Measured values: publication doi:10.1101/2021.01.15.426901
No constants are given. Whether binding was seen depends on the method and setting. In cells and extracts the contact can be indirect. Some binding calls cover weakened binding; strength is not graded here.

By UniProt entry, the sequences of proteins in these tests, tags left out.
UniProt O09106: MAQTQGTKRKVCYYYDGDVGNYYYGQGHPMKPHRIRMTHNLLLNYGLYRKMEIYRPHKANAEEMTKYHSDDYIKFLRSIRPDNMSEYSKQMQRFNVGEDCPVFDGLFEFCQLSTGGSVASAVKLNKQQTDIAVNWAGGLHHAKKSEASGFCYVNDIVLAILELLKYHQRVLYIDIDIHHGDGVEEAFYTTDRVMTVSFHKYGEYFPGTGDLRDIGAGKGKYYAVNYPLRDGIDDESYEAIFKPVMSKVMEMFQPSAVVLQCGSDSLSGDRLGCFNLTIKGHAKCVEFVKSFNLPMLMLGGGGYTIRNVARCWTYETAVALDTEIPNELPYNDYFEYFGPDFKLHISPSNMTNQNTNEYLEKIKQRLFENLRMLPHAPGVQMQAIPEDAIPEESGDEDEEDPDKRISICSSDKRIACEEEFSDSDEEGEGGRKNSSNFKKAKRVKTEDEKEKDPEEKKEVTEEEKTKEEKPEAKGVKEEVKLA
UniProt P70288: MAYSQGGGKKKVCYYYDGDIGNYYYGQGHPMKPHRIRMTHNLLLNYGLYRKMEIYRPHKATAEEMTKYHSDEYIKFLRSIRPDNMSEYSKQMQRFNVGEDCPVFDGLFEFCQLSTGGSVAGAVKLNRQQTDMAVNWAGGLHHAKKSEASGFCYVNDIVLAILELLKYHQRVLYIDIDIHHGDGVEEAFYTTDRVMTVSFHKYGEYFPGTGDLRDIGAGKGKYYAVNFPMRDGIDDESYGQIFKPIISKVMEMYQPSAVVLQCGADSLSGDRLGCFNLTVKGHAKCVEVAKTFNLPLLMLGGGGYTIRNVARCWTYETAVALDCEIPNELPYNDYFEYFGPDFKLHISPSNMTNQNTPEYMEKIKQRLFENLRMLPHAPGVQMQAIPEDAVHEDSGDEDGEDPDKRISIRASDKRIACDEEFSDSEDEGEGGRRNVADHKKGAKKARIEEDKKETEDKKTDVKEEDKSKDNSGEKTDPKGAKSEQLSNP

T1: ZFP541 (mouse (endogenous in testis)) (UniProt Q0GGX2)
T1 sequence: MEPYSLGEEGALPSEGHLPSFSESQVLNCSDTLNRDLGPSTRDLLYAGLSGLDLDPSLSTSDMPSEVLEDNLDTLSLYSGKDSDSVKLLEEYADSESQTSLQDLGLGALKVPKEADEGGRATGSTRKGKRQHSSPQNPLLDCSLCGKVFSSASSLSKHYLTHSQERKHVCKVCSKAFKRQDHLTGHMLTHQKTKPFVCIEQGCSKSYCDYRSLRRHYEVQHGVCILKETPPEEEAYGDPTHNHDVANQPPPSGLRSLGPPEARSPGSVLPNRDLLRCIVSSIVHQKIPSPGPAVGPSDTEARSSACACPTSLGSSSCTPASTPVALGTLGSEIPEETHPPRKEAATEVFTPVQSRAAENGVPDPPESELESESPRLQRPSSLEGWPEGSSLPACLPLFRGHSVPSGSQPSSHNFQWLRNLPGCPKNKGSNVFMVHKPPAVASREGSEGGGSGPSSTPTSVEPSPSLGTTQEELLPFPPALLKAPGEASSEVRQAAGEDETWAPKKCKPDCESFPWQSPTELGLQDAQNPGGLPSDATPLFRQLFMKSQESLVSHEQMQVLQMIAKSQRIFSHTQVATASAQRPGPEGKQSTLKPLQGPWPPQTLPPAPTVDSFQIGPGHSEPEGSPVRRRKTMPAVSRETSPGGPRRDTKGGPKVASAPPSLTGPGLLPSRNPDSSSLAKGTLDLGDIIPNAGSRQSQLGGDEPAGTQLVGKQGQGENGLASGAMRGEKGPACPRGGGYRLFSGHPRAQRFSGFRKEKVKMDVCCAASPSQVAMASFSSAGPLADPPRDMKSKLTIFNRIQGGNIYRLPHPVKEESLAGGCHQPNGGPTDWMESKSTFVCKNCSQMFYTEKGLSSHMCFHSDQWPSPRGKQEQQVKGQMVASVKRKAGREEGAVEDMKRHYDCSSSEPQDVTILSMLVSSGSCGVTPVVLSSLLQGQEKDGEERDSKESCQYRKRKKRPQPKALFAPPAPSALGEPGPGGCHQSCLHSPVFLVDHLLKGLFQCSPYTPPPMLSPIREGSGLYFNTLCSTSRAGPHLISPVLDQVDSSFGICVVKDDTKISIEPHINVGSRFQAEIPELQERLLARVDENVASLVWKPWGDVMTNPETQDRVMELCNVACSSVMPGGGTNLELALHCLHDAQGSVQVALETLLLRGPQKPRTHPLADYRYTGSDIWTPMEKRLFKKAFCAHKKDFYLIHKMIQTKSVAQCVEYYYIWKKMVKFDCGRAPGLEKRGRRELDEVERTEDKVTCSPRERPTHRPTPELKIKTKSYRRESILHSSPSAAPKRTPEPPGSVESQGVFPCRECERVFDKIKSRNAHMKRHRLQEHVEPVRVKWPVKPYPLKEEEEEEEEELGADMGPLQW

B1: terminal deoxynucleotidyltransferase interacting factor 1 (TDIF1) (protein, UniProt Q99LB0 1-328)
chain: MGATGDTEQPRGPGGAERGGLELGDAGAAGQPVLTNPWNIMIKHRQVQRRGRRSQMTTSFTDPAISMDLLRAVLQPSINEEIQGVFNKYMKFFQKAALNVRDNVGEEVDAEQLIQEACRSCLEQAKLLFSDGEKVIPRLAHELPGIKRGRQAEEESHRGSPIPKKRKGRPPGHVLSNDRAAAGMVWKQKSCEPIRREGPKWDPARLNESTTFVLGSRANKALGMGGTRGRIYIKHPHLFKYAADPQDKHWLAEQHHMRATGGKMAYLLIEEDIRDLAASDDYRGCLDLKLEELKSFVLPSWMVEKMRKYMETLRTENEHRAAEAPPQT

These molecules were tested against T1, ZFP541 (mouse (endogenous in testis)) (assay: co-IP).

Row | binding | Molecule
1 | binds | HDAC1 (from UniProt O09106 1-482) (enzyme)
2 | binds | HDAC2 (from UniProt P70288 1-488) (enzyme)
3 | binds | B1
